The results in this text go back to paper doi:10.1101/2023.10.24.563886.

Chains of the proteins cited; added tags and fusions are not shown.
UniProt E1AZ71: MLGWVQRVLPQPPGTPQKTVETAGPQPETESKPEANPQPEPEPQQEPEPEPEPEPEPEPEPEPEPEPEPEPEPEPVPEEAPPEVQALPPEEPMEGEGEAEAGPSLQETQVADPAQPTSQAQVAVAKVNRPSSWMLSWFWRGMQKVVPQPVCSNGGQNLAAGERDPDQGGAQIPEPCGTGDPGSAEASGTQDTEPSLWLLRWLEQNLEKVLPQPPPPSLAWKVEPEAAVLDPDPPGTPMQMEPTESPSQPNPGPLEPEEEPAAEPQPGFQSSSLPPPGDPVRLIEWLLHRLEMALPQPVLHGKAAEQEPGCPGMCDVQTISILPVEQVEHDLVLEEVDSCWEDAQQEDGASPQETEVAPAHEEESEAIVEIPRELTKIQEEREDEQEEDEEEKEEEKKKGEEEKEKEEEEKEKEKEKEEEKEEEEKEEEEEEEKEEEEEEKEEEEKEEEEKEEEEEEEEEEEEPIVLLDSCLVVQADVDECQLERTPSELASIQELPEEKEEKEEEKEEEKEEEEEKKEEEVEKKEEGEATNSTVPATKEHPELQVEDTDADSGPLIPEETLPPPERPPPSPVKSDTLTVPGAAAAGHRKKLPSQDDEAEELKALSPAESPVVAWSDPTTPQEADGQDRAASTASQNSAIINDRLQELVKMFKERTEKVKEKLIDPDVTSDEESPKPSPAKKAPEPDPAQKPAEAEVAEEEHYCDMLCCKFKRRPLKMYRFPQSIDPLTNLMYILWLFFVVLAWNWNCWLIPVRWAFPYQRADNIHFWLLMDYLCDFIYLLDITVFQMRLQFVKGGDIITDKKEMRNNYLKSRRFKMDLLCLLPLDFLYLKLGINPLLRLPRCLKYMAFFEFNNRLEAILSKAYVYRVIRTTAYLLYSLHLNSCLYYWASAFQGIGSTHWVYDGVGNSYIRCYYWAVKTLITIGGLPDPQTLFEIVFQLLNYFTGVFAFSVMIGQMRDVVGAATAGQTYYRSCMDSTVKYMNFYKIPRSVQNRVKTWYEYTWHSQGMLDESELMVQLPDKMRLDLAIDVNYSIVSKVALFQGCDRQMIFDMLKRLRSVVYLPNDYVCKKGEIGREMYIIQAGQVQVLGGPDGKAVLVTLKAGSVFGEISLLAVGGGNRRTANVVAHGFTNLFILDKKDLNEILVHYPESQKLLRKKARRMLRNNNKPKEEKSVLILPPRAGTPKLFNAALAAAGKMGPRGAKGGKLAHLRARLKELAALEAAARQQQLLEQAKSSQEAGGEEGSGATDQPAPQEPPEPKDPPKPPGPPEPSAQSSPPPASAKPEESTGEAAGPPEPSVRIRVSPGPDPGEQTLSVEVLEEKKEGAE
UniProt O88704: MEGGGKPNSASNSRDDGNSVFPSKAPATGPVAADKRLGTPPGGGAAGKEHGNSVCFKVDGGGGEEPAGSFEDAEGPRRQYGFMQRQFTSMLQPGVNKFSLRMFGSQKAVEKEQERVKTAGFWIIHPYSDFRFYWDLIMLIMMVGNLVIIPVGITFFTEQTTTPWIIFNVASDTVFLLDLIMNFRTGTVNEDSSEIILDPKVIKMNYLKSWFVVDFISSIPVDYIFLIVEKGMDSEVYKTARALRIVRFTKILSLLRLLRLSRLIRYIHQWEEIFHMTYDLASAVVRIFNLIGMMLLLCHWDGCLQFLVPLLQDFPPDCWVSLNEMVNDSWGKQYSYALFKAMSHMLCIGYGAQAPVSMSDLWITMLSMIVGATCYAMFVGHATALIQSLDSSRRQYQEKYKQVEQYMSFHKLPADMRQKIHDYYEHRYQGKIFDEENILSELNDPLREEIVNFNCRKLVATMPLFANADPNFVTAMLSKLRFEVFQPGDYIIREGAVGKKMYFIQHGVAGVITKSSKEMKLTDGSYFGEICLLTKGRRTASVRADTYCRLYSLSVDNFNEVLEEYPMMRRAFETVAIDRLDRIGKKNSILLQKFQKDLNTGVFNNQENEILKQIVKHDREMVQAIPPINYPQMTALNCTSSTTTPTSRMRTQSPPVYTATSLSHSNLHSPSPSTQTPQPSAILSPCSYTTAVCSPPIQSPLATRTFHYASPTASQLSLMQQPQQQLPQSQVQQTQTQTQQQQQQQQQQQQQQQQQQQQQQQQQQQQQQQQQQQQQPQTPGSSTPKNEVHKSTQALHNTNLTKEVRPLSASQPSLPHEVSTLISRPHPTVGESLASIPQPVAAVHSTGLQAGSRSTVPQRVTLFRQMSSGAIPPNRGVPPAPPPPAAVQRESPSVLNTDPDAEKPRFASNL

The target of the assay is T1, LPHN2 (mouse (endogenous in utricle)) (UniProt Q8JZZ7).
T1 sequence: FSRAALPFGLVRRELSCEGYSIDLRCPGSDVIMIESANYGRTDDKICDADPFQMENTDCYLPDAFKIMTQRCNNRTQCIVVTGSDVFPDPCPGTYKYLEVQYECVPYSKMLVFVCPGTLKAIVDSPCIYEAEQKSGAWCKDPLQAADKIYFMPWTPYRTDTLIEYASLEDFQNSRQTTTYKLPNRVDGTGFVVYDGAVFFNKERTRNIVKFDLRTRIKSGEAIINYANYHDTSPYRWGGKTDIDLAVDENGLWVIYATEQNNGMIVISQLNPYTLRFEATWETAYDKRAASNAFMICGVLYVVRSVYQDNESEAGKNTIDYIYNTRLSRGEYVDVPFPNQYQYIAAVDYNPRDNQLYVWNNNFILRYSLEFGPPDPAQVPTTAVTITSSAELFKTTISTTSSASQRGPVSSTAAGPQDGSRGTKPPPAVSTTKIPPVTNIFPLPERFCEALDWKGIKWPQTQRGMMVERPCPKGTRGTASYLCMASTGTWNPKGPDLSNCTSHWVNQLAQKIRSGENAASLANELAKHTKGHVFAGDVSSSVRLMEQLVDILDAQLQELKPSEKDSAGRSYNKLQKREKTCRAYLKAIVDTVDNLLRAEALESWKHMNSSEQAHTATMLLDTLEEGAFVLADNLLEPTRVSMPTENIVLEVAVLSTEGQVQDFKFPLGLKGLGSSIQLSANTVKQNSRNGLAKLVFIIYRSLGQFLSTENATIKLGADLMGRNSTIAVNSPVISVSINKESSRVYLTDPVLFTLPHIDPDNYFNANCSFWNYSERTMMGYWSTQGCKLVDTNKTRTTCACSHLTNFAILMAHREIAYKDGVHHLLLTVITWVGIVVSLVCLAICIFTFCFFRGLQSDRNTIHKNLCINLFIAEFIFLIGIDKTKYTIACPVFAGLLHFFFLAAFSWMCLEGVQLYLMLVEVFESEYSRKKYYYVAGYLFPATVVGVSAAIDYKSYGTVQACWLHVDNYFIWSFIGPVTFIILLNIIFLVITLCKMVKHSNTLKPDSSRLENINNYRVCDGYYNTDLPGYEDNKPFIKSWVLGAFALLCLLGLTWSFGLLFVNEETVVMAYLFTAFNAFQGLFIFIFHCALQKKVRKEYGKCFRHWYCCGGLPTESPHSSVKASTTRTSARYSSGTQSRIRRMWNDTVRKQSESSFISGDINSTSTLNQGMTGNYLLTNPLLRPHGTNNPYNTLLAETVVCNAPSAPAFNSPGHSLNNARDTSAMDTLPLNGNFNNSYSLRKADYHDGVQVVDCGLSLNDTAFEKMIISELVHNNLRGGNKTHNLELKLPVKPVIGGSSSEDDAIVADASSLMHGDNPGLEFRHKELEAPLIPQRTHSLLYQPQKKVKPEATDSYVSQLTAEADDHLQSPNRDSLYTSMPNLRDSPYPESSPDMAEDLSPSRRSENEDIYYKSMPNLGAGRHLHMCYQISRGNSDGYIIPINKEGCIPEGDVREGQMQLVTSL
The assay can be described thus: co-IP.

Results are given in words; binding and its absence hold for the method and conditions named. Binding seen in cells or lysates may run through a third protein. Some binding calls cover weakened binding; strength is not graded here.

CNGB1 (from UniProt E1AZ71 1-1325): the binding result is recorded as “no binding”.

Turning to HCN1 (from UniProt O88704 1-910), the binding entry is “no binding”.

B1: HCN4 (protein, UniProt O70507 1-1201)
chain: MDKLPPSMRKRLYSLPQQVGAKAWIMDEEEDGEEEGAGGRQDPSRRSIRLRPLPSPSPSVAAGCSESRGAALGATESEGPGRSAGKSSTNGDCRRFRGSLASLGSRGGGSGGAGGGSSLGHLHDSAEERRLIAAEGDASPGEDRTPPGLATEPERPATAAQPAASPPPQQPPQPASASCEQPSADTAIKVEGGAAASDQILPEAEVRLGQSGFMQRQFGAMLQPGVNKFSLRMFGSQKAVEREQERVKSAGFWIIHPYSDFRFYWDLTMLLLMVGNLIIIPVGITFFKDENTTPWIVFNVVSDTFFLIDLVLNFRTGIVVEDNTEIILDPQRIKMKYLKSWFVVDFISSIPVDYIFLIVETRIDSEVYKTARALRIVRFTKILSLLRLLRLSRLIRYIHQWEEIFHMTYDLASAVVRIVNLIGMMLLLCHWDGCLQFLVPMLQDFPHDCWVSINGMVNNSWGKQYSYALFKAMSHMLCIGYGRQAPVGMSDVWLTMLSMIVGATCYAMFIGHATALIQSLDSSRRQYQEKYKQVEQYMSFHKLPPDTRQRIHDYYEHRYQGKMFDEESILGELSEPLREEIINFNCRKLVASMPLFANADPNFVTSMLTKLRFEVFQPGDYIIREGTIGKKMYFIQHGVVSVLTKGNKETKLADGSYFGEICLLTRGRRTASVRADTYCRLYSLSVDNFNEVLEEYPMMRRAFETVALDRLDRIGKKNSILLHKVQHDLNSGVFNYQENEIIQQIVRHDREMAHCAHRVQAAASATPTPTPVIWTPLIQAPLQAAAATTSVAIALTHHPRLPAAIFRPPPGPGLGNLGAGQTPRHPRRLQSLIPSALGSASPASSPSQVDTPSSSSFHIQQLAGFSAPPGLSPLLPSSSSSPPPGACGSPPAPTPSTSTAAAASTTGFGHFHKALGGSLSSSDSPLLTPLQPGARSPQAAQPPPPLPGARGGLGLLEHFLPPPPSSRSPSSSPGQLGQPPGELSLGLAAGPSSTPETPPRPERPSFMAGASGGASPVAFTPRGGLSPPGHSPGPPRTFPSAPPRASGSHGSLLLPPASSPPPPQVPQRRGTPPLTPGRLTQDLKLISASQPALPQDGAQTLRRASPHSSGESVAAFSLYPRAGGGSGSSGGLGPPGRPYGAIPGQHVTLPRKTSSGSLPPPLSLFGARAASSGGPPLTTAAPQREPGARSEPVRSKLPSNL
In the case of B1, the binding result is “no binding”.

B2: CNGA1 (protein, UniProt P29974 1-684)
chain: MKTNIINTWHSFVNIPNVIVPAIEKEIRRMENGACSSFSDDDNGSLSEESENEDSFFRSNSYKRRGPSQREQHLPGTMALFNVNNSSNKDQEPKEKKKKKKEKKSKADDKNENKKDPEKKKKKEKEKEKKKKEEKTKEKKEEEKKEVVVIDPSGNTYYNWLFCITLPVMYNWTMIIARACFDELQSDYLEYWLIFDYVSDVVYLADMFVRTRTGYLEQGLLVKDRMKLIEKYKANLQFKLDVLSVIPTDLLYIKFGWNYPEIRLNRLLRISRMFEFFQRTETRTNYPNIFRISNLVMYIVIIIHWNACVYYSISKAIGFGNDTWVYPDVNDPEFGRLARKYVYSLYWSTLTLTTIGETPPPVLDSEYIFVVVDFLIGVLIFATIVGNIGSMISNMNAARAEFQSRVDAIKQYMNFRNVSKDMEKRVIKWFDYLWTNKKTVDEREVLRYLPDKLRAEIAINVHLDTLKKVRIFADCEAGLLVELVLKLQPQVYSPGDYICKKGDIGREMYIIKEGKLAVVADDGITQFVVLSDGSYFGEISILNIKGSKAGNRRTANIKSIGYSDLFCLSKDDLMEALTEYPDAKTMLEEKGRQILMKDGLLDINIANMGSDPKDLEEKVTRMEGSVDLLQTRFARILAEYESMQQKLKQRLTKVEKFLKPLIETEFSALEEPGGESELTESLQD
As for B2, the binding entry was “no binding”.

B3: CNGA3 (protein, UniProt Q9JJZ8 1-631)
chain: MAKVNTQCSQPSPTQLSIKNADRDLDHVENGLGRVSRLIISIRAWASRHLHDEDQTPDSFLDRFHGSELKEVSTRESNAQPNPGEQKPPDGGEGRKEEPIVVDPSSNIYYRWLTAIALPVFYNWCLLVCRACFDELQSEHLTLWLVLDYSADVLYVLDMLVRARTGFLEQGLMVRDTKRLWKHYTKTLHFKLDILSLIPTDLAYLKLGVNYPELRFNRLLKFSRLFEFFDRTETRTNYPNVFRIGNLVLYTLIIIHWNACIYFAISKFIGFGTDSWVYPNTSKPEYARLSRKYIYSLYWSTLTLTTIGETPPPVKDEEYLFVVIDFLVGILIFATIVGNVGSMISNMNAPRVEFQAKIDSVKQYMQFRKVTKDLETRVIRWFDYLWANRKTVDEKEVLKNLPDKLKAEIAINVHLDTLKKVRIFQDCEAGLLVELVLKLRPTVFSPGDYICKKGDIGREMYIIKEGKLAVVADDGVTQFVVLSDGSYFGEISILNIKGSKSGNRRTANIRSIGYSDLFCLSKDDLMEALTEYPDAKRALEEKGRQILMKDNLIDEDLVAARVDTRDVEEKVEYLESSLDILQTRFARLLAEYSASQMKLKQRLTRLESQMNRRCCGFSPDRENSEDASKTD
Take B3: the binding result is listed as “binds”.
